# Source: the supplement of paper PMC8728848
# Some of the results follow.
# B1: Epa3to2 (Candida glabrata) (protein)
# chain: MGSSHHHHHHSSGLVPRGSHMKRELSSQNPFGYPIGCSPQDVAIIPGLTMELYSYPIVSGTPPNCYDASYVDPEYPRTGYLKRKMVGKSTGVTGNLNYKYSVEKACMVKYGNLPAGYNYNEPLTVSNFTMILYGYFKAQTTGLHTFFVNADDLLYINFGAGNAFDCCKREDSKTKLGEYVAYDIWHVDSSKNKVSLFLEKDLYYPIRMFFNNRDNNSSLDLSFSVNGATDQISDFSGYLYSVPDQPDTCPAHIGYDTTCR
# Experiments:
# Experiment in all cases: glycan array binding signal (z-score within array); higher = stronger binding
# Details in all cases: glycan notation: IUPAC condensed, linker removed
# [1] = biological target: Fuc(a1-2)[Gal(a1-3)]Gal(b1-4)GlcNAc(b1-2)Man(a1-3)[Fuc(a1-2)[Gal(a1-3)]Gal(b1-4)GlcNAc(b1-2)Man(a1-6)]Man(b1-4)GlcNAc(b1-4)[Fuc(a1-6)]GlcNAc
# Method in brief: (§1)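 The Consortium for Functional Glycomics database supplied 3228 glycan arrays, of which those lacking an available protein sequence were dropped. The binding signal, a within-array Z-score, was averaged across arrays of the same protein sequence and across linkers. Negative scores can be read as non-binding.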
# [2] = biological target: Fuc(a1-2)[Gal(a1-3)]Gal(b1-4)GlcNAc(b1-3)GalNAc
# Method in brief: as §1
# [3] = biological target: Fuc(a1-2)[Gal(a1-3)]Gal(b1-4)GlcNAc(b1-3)[Fuc(a1-2)[Gal(a1-3)]Gal(b1-4)GlcNAc(b1-6)]GalNAc
# Method in brief: as §1
# [4] = biological target: Fuc(a1-2)[Gal(a1-3)]Gal(b1-4)GlcNAc(b1-6)GalNAc
# Method in brief: as §1
# [5] = biological target: Fuc(a1-2)[Gal(a1-3)]Gal(b1-4)[Fuc(a1-3)]Glc
# Method in brief: as §1
# [6] = biological target: Fuc(a1-2)[Gal(a1-3)]Gal(b1-4)[Fuc(a1-3)]GlcNAc
# Method in brief: as §1
# [7] = biological target: Fuc(a1-2)[Gal(a1-3)]Gal(b1-4)[Fuc(a1-3)]GlcNAc(b1-3)GalNAc
# Method in brief: as §1
# [8] = biological target: Fuc(a1-2)[Gal(a1-4)]Gal(b1-4)GlcNAc
# Method in brief: as §1
# [9] = biological target: Fuc(a1-2)[GalNAc(a1-3)]Gal
# Method in brief: as §1
# [10] = biological target: Fuc(a1-2)[GalNAc(a1-3)]Gal(b1-3)GalNAc(a1-3)[Fuc(a1-2)]Gal(b1-4)GlcNAc
# Method in brief: as §1
# [11] = biological target: Fuc(a1-2)[GalNAc(a1-3)]Gal(b1-3)GalNAc(b1-3)Gal(a1-4)Gal(b1-4)Glc
# Method in brief: as §1
# [12] = biological target: Fuc(a1-2)[GalNAc(a1-3)]Gal(b1-3)GlcNAc
# Method in brief: as §1
# [13] = biological target: Fuc(a1-2)[GalNAc(a1-3)]Gal(b1-3)GlcNAc(b1-2)Man(a1-3)[Fuc(a1-2)[GalNAc(a1-3)]Gal(b1-3)GlcNAc(b1-2)Man(a1-6)]Man(b1-4)GlcNAc(b1-4)GlcNAc
# Method in brief: as §1
# [14] = biological target: Fuc(a1-2)[GalNAc(a1-3)]Gal(b1-3)GlcNAc(b1-2)Man(a1-3)[Fuc(a1-2)[GalNAc(a1-3)]Gal(b1-3)GlcNAc(b1-2)Man(a1-6)]Man(b1-4)GlcNAc(b1-4)[Fuc(a1-6)]GlcNAc
# Method in brief: as §1
# [15] = biological target: Fuc(a1-2)[GalNAc(a1-3)]Gal(b1-3)GlcNAc(b1-3)GalNAc
# Method in brief: as §1
# [16] = biological target: Fuc(a1-2)[GalNAc(a1-3)]Gal(b1-3)GlcNAc(b1-6)GalNAc
# Method in brief: as §1
# [17] = biological target: Fuc(a1-2)[GalNAc(a1-3)]Gal(b1-4)Glc
# Method in brief: as §1
# [18] = biological target: Fuc(a1-2)[GalNAc(a1-3)]Gal(b1-4)GlcNAc
# Method in brief: as §1
# [19] = biological target: Fuc(a1-2)[GalNAc(a1-3)]Gal(b1-4)GlcNAc(b1-2)Man
# Method in brief: as §1
# [20] = biological target: Fuc(a1-2)[GalNAc(a1-3)]Gal(b1-4)GlcNAc(b1-2)Man(a1-3)[Fuc(a1-2)[GalNAc(a1-3)]Gal(b1-4)GlcNAc(b1-2)Man(a1-6)]Man(b1-4)GlcNAc(b1-4)GlcNAc
# Method in brief: as §1
# [21] = biological target: Fuc(a1-2)[GalNAc(a1-3)]Gal(b1-4)GlcNAc(b1-2)Man(a1-3)[Fuc(a1-2)[GalNAc(a1-3)]Gal(b1-4)GlcNAc(b1-2)Man(a1-6)]Man(b1-4)GlcNAc(b1-4)[Fuc(a1-6)]GlcNAc
# Method in brief: as §1
# [22] = biological target: Fuc(a1-2)[GalNAc(a1-3)]Gal(b1-4)GlcNAc(b1-3)Gal(b1-4)GlcNAc
# Method in brief: as §1
# [23] = biological target: Fuc(a1-2)[GalNAc(a1-3)]Gal(b1-4)GlcNAc(b1-3)Gal(b1-4)GlcNAc(b1-3)Gal(b1-4)GlcNAc
# Method in brief: as §1
# [24] = biological target: Fuc(a1-2)[GalNAc(a1-3)]Gal(b1-4)GlcNAc(b1-3)GalNAc
# Method in brief: as §1
# [25] = biological target: Fuc(a1-2)[GalNAc(a1-3)]Gal(b1-4)GlcNAc(b1-3)[Fuc(a1-2)[GalNAc(a1-3)]Gal(b1-4)GlcNAc(b1-6)]GalNAc
# Method in brief: as §1
# [26] = biological target: Fuc(a1-2)[GalNAc(a1-3)]Gal(b1-4)GlcNAc(b1-6)GalNAc
# Method in brief: as §1
# [27] = biological target: Fuc(a1-2)[GalNAc(a1-3)]Gal(b1-4)[Fuc(a1-3)]GlcNAc
# Method in brief: as §1
# [28] = biological target: Fuc(a1-2)[GalNAc(a1-3)]Gal(b1-4)[Fuc(a1-3)]GlcNAc(b1-3)GalNAc
# Method in brief: as §1
# [29] = biological target: Fuc(a1-2)[GalNAc(a1-4)]Gal(b1-4)GlcNAc
# Method in brief: as §1
# [30] = biological target: Fuc(a1-2)[GalNAc(b1-3)]Gal
# Method in brief: as §1
# [31] = biological target: Fuc(a1-3)GlcNAc
# Method in brief: as §1
# [32] = biological target: Fuc(a1-3)[Gal(b1-4)]Glc6S
# Method in brief: as §1
# [33] = biological target: Fuc(a1-3)[Gal(b1-4)]GlcNAc
# Method in brief: as §1
# [34] = biological target: Fuc(a1-3)[Gal(b1-4)]GlcNAc(b1-2)Man
# Method in brief: as §1
# [35] = biological target: Fuc(a1-3)[Gal(b1-4)]GlcNAc(b1-2)Man(a1-3)[Fuc(a1-3)[Gal(b1-4)]GlcNAc(b1-2)Man(a1-6)]Man(b1-4)GlcNAc(b1-4)GlcNAc
# Method in brief: as §1
# [36] = biological target: Fuc(a1-3)[Gal(b1-4)]GlcNAc(b1-2)Man(a1-3)[Fuc(a1-3)[Gal(b1-4)]GlcNAc(b1-2)Man(a1-6)]Man(b1-4)GlcNAc(b1-4)[Fuc(a1-6)]GlcNAc
# Method in brief: as §1
# [37] = biological target: Fuc(a1-3)[Gal(b1-4)]GlcNAc(b1-3)Gal(b1-3)[Fuc(a1-4)]GlcNAc
# Method in brief: as §1
# [38] = biological target: Fuc(a1-3)[Gal(b1-4)]GlcNAc(b1-3)Gal(b1-4)[Fuc(a1-3)]GlcNAc
# Method in brief: as §1
# [39] = biological target: Fuc(a1-3)[Gal(b1-4)]GlcNAc(b1-3)Gal(b1-4)[Fuc(a1-3)]GlcNAc(b1-3)Gal(b1-4)[Fuc(a1-3)]GlcNAc
# Method in brief: as §1
# [40] = biological target: Fuc(a1-3)[Gal(b1-4)]GlcNAc(b1-3)GalNAc
# Method in brief: as §1
# [41] = biological target: Fuc(a1-3)[Gal(b1-4)]GlcNAc(b1-6)GalNAc
# Method in brief: as §1
# [42] = biological target: Fuc(a1-3)[Gal(b1-4)]GlcNAc(b1-6)[Gal(b1-3)GlcNAc(b1-3)]Gal(b1-4)Glc
# Method in brief: as §1
# [43] = biological target: Fuc(a1-3)[Gal(b1-4)]GlcNAc6S
# Method in brief: as §1
# [44] = biological target: Fuc(a1-3)[Gal3S(b1-4)]Glc
# Method in brief: as §1
# [45] = biological target: Fuc(a1-3)[Gal3S(b1-4)]GlcNAc
# Method in brief: as §1
# [46] = biological target: Fuc(a1-3)[Gal3S(b1-4)]GlcNAc6S
# Method in brief: as §1
# [47] = biological target: Fuc(a1-3)[GalNAc(b1-4)]GlcNAc
# Method in brief: as §1
# [48] = biological target: Fuc(a1-3)[GalNAc(b1-4)]GlcNAc6S
# Method in brief: as §1
# [49] = biological target: Fuc(a1-4)GlcNAc
# Method in brief: as §1
# [50] = biological target: Fuc(b1-3)GlcNAc
# Method in brief: as §1
# [51] = biological target: Gal(a1-2)Gal
# Method in brief: as §1
# [52] = biological target: Gal(a1-3)Gal
# Method in brief: as §1
# [53] = biological target: Gal(a1-3)Gal(b1-3)GlcNAc
# Method in brief: as §1
# [54] = biological target: Gal(a1-3)Gal(b1-3)GlcNAc(b1-2)Man
# Method in brief: as §1
# [55] = biological target: Gal(a1-3)Gal(b1-3)GlcNAc(b1-2)Man(a1-3)[Gal(a1-3)Gal(b1-3)GlcNAc(b1-2)Man(a1-6)]Man(b1-4)GlcNAc(b1-4)GlcNAc
# Method in brief: as §1
# [56] = biological target: Gal(a1-3)Gal(b1-3)GlcNAc(b1-3)GalNAc
# Method in brief: as §1
# [57] = biological target: Gal(a1-3)Gal(b1-3)GlcNAc(b1-6)GalNAc
# Method in brief: as §1
# [58] = biological target: Gal(a1-3)Gal(b1-3)[Fuc(a1-4)]GlcNAc(b1-2)Man(a1-3)[Gal(a1-3)Gal(b1-3)[Fuc(a1-4)]GlcNAc(b1-2)Man(a1-6)]Man(b1-4)GlcNAc(b1-4)GlcNAc
# Method in brief: as §1
# [59] = biological target: Gal(a1-3)Gal(b1-4)Glc
# Method in brief: as §1
# [60] = biological target: Gal(a1-3)Gal(b1-4)GlcNAc
# Method in brief: as §1
binder,measurement,setting,value
B1,glycan array binding signal (z-score),[1],0.489
same,glycan array binding signal (z-score),[2],-0.527
same,glycan array binding signal (z-score),[3],1.44
same,glycan array binding signal (z-score),[4],-0.714
same,glycan array binding signal (z-score),[5],0.485
same,glycan array binding signal (z-score),[6],-0.786
same,glycan array binding signal (z-score),[7],-0.581
same,glycan array binding signal (z-score),[8],-0.207
same,glycan array binding signal (z-score),[9],-0.653
same,glycan array binding signal (z-score),[10],-0.917
same,glycan array binding signal (z-score),[11],-0.415
same,glycan array binding signal (z-score),[12],1.91
same,glycan array binding signal (z-score),[13],-0.169
same,glycan array binding signal (z-score),[14],0.117
same,glycan array binding signal (z-score),[15],-0.109
same,glycan array binding signal (z-score),[16],-1.41
same,glycan array binding signal (z-score),[17],-0.807
same,glycan array binding signal (z-score),[18],0.658
same,glycan array binding signal (z-score),[19],-0.869
same,glycan array binding signal (z-score),[20],-0.503
same,glycan array binding signal (z-score),[21],0.837
same,glycan array binding signal (z-score),[22],-0.77
same,glycan array binding signal (z-score),[23],0.839
same,glycan array binding signal (z-score),[24],-0.995
same,glycan array binding signal (z-score),[25],-0.064
same,glycan array binding signal (z-score),[26],0.299
same,glycan array binding signal (z-score),[27],0.989
same,glycan array binding signal (z-score),[28],-0.765
same,glycan array binding signal (z-score),[29],-1.66
same,glycan array binding signal (z-score),[30],1.21
same,glycan array binding signal (z-score),[31],0.35
same,glycan array binding signal (z-score),[32],0.316
same,glycan array binding signal (z-score),[33],-0.224
same,glycan array binding signal (z-score),[34],-1.12
same,glycan array binding signal (z-score),[35],-0.606
same,glycan array binding signal (z-score),[36],-0.166
same,glycan array binding signal (z-score),[37],-1.04
same,glycan array binding signal (z-score),[38],1.3
same,glycan array binding signal (z-score),[39],-0.979
same,glycan array binding signal (z-score),[40],1.52
same,glycan array binding signal (z-score),[41],-1.35
same,glycan array binding signal (z-score),[42],0.768
same,glycan array binding signal (z-score),[43],1.03
same,glycan array binding signal (z-score),[44],0.878
same,glycan array binding signal (z-score),[45],-0.386
same,glycan array binding signal (z-score),[46],1.15
same,glycan array binding signal (z-score),[47],0.716
same,glycan array binding signal (z-score),[48],-0.7
same,glycan array binding signal (z-score),[49],1.4
same,glycan array binding signal (z-score),[50],-0.719
same,glycan array binding signal (z-score),[51],-0.962
same,glycan array binding signal (z-score),[52],0.6
same,glycan array binding signal (z-score),[53],-0.139
same,glycan array binding signal (z-score),[54],-0.118
same,glycan array binding signal (z-score),[55],0.351
same,glycan array binding signal (z-score),[56],0.158
same,glycan array binding signal (z-score),[57],0.109
same,glycan array binding signal (z-score),[58],-0.734
same,glycan array binding signal (z-score),[59],-0.693
same,glycan array binding signal (z-score),[60],-0.462

# Two entries from above, with tabs:
binder	measurement	setting	value
B1	glycan array binding signal (z-score)	[7]	-0.581
same	glycan array binding signal (z-score)	[21]	0.837
